These are yes or no findings as the source states them, for the method shown. In cells and extracts the contact can be indirect. Some results given as binding are weak or reduced against the parent protein; the word gives no strength. One block for each binder: values may come before it.
How the values were obtained:
HA-tagged Cdc20 (human) = HA-tagged Cdc20 (human) (UniProt Q12834); assay: co-IP; deletion constructs of BRD7, Cdh1 or Cdc20 to map the binding domains; tags and cells not given
HA-tagged Cdh1 (human) = HA-tagged Cdh1 (human) (UniProt Q9UM11); assay: as above

Amino acid sequences for entries named in this document (tags omitted).
UniProt Q12834: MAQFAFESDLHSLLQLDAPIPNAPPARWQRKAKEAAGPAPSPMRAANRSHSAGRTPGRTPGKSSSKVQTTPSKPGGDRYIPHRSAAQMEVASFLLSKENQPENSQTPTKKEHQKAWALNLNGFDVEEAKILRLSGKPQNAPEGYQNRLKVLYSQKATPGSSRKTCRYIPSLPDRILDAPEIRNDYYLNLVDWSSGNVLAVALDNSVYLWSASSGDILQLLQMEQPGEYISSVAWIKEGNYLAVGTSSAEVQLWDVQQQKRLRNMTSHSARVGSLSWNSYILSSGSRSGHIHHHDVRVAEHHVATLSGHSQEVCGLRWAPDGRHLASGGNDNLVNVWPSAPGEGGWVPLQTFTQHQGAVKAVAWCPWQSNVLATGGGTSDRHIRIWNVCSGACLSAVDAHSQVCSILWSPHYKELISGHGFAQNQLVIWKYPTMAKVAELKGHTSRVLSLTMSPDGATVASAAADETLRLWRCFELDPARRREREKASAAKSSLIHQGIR
UniProt Q9UM11: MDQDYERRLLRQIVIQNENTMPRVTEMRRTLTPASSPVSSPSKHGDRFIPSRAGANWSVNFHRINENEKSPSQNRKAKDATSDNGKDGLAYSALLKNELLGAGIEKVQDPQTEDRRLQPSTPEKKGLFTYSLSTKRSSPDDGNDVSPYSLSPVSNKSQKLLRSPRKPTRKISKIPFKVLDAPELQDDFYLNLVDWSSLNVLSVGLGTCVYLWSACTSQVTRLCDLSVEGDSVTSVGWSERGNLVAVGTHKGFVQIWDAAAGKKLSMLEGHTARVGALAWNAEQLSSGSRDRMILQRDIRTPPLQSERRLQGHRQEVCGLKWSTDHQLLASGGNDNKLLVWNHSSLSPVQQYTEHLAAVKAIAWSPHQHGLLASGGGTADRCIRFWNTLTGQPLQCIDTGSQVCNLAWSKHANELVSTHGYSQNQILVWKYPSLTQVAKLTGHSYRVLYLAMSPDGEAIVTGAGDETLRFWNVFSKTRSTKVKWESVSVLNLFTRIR

- binding (HA-tagged Cdc20 (human)): binds
- binding (HA-tagged Cdh1 (human)): binds
B1: BRD7 N-terminus (residues 1-361) (domain or fragment, UniProt Q9NPI1 1-361)
chain: MGKKHKKHKSDKHLYEEYVEKPLKLVLKVGGNEVTELSTGSSGHDSSLFEDKNDHDKHKDRKRKKRKKGEKQIPGEEKGRKRRRVKEDKKKRDRDRVENEAEKDLQCHAPVRLDLPPEKPLTSSLAKQEEVEQTPLQEALNQLMRQLQRKDPSAFFSFPVTDFIAPGYSMIIKHPMDFSTMKEKIKNNDYQSIEELKDNFKLMCTNAMIYNKPETIYYKAAKKLLHSGMKILSQERIQSLKQSIDFMADLQKTRKQKDGTDTSQSGEDGGCWQREREDSGDAEAHAFKSPSKENKKKDKDMLEDKFKSNNLEREQEQLDRIVKESGGKLTRRLVNSQCEFERRKPDGTTTLGLLHPVDPIV

- binding (HA-tagged Cdc20 (human)): binds
- binding (HA-tagged Cdh1 (human)): binds
B2: BRD7 C-terminus (residues 361-651) (domain or fragment, UniProt Q9NPI1 361-651)
chain: VGEPGYCPVRLGMTTGRLQSGVNTLQGFKEDKRNKVTPVLYLNYGPYSSYAPHYDSTFANISKDDSDLIYSTYGEDSDLPSDFSIHEFLATCQDYPYVMADSLLDVLTKGGHSRTLQEMEMSLPEDEGHTRTLDTAKEMEITEVEPPGRLDSSTQDRLIALKAVTNFGVPVEVFDSEEAEIFQKKLDETTRLLRELQEAQNERLSTRPPPNMICLLGPSYREMHLAEQVTNNLKELAQQVTPGDIVSTYGVRKAMGISIPSPVMENNFVDLTEDTEEPKKTDVAECGPGGS

Source: article PMC4102794
